Data source: PubChem BioAssay AID1508597 (Cure First, 2020)

- Test: 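Survival screen with siRNA in ovarian cancer cells derived from patients, with or without rucaparib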 (primary screen)
- Cells: human ovarian carcinoma lines grown from tumours: OCI-P5x (papillary serous) and OCI-C5x (clear cell)
- Knock-down reagent: siRNA pool against human genes, 1.25 pmol siRNA per well
- Duration: 72 h or 96 h, depending on the cell culture
- Treatment: rucaparib 20 µM (about IC30) or vehicle, present until read-out
- Rucaparib or vehicle: Vehicle
- Cell line: OCI-P5x (serous)
- Read-out: 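Luminescent ATP-based viability assay read 72 or 96 h after transfection, depending on culture, given as normalised percent viability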
- Direction: viability, normalised: higher = more viable cells remaining
- Rule for the call: 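Active when normalised viability falls below 80 percent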
- Meaning of the calls: active = viability under 80%; inactive = viability 80% or more
This is an unselected part of the about 2,100 reagents, in one setting of the screen. 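Calls flag viability under 80% in either arm, not effects specific to rucaparib; the reference for percent is not stated.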 Entries without a mark were called inactive. A reagent listed more than once was tested more than once; the source does not tell the runs apart. No sequences are given here. The record does not give: the 100% reference.

no.	Target gene	technical replicate	viability, normalised (%)
1	PCM1	1	39 (active)
2	PCM1	2	55.7 (active)
3	PCM1	3	83.4
4	ITIH4	1	83.3
5	ITIH4	2	86.3
6	ITIH4	3	93.6
7	DDX42	1	56.2 (active)
8	DDX42	2	60.5 (active)
9	DDX42	3	65.8 (active)
10	H4C13	1	52.7 (active)
11	H4C13	2	60.1 (active)
12	H4C13	3	70.8 (active)
13	CHMP1B	1	81.1
14	CHMP1B	2	70.3 (active)
15	CHMP1B	3	64.1 (active)
16	JADE1	1	61.8 (active)
17	JADE1	2	59.4 (active)
18	JADE1	3	85
19	ACTL6A	1	46.1 (active)
20	ACTL6A	2	68.2 (active)
21	ACTL6A	3	72 (active)
22	VRK3	1	140
23	VRK3	1	72.2 (active)
24	VRK3	2	143
25	VRK3	2	68.3 (active)
26	VRK3	3	134
27	VRK3	3	53.4 (active)
28	ARID3B	1	44.3 (active)
29	ARID3B	2	60.6 (active)
30	ARID3B	3	43.9 (active)
31	JARID2	1	69.7 (active)
32	JARID2	2	69.2 (active)
33	JARID2	3	79.5 (active)

Reformatted: results already given.
{"Target gene": "ITIH4", "technical replicate": "3", "viability, normalised (%)": 93.6}
{"Target gene": "DDX42", "technical replicate": "1", "viability, normalised (%)": "56.2 (active)"}
{"Target gene": "DDX42", "technical replicate": "2", "viability, normalised (%)": "60.5 (active)"}
{"Target gene": "DDX42", "technical replicate": "3", "viability, normalised (%)": "65.8 (active)"}
{"Target gene": "H4C13", "technical replicate": "1", "viability, normalised (%)": "52.7 (active)"}
{"Target gene": "H4C13", "technical replicate": "2", "viability, normalised (%)": "60.1 (active)"}
{"Target gene": "H4C13", "technical replicate": "3", "viability, normalised (%)": "70.8 (active)"}
{"Target gene": "CHMP1B", "technical replicate": "1", "viability, normalised (%)": 81.1}
{"Target gene": "CHMP1B", "technical replicate": "2", "viability, normalised (%)": "70.3 (active)"}

The list goes on.
no.	Target gene	technical replicate	viability, normalised (%)
34	KIT	1	57.3 (active)
35	KIT	2	63.2 (active)
36	KIT	3	65.6 (active)
37	PDP1	1	63.3 (active)
38	PDP1	2	75 (active)
39	PDP1	3	88.6
40	PTTG2	1	59.8 (active)
41	PTTG2	2	61.4 (active)
42	PTTG2	3	78.8 (active)
43	IFIH1	1	58.9 (active)
44	IFIH1	2	57.6 (active)
45	IFIH1	3	46.1 (active)
46	ZFAT	1	59.3 (active)
47	ZFAT	2	70.9 (active)
48	ZFAT	3	66.9 (active)
49	ONECUT1	1	52.9 (active)
50	ONECUT1	2	53.5 (active)
51	ONECUT1	3	75 (active)
52	RAD23A	1	61.5 (active)
53	RAD23A	2	67.1 (active)
54	RAD23A	3	65 (active)
55	POLR3K	1	71 (active)
56	POLR3K	2	69.4 (active)
57	POLR3K	3	66.9 (active)
